NP40-soluble protein abundance data for 20 targets are collected here from the supplement of paper PMC6411743.

Chains of the proteins cited; added tags and fusions are not shown. Lines headed by an entry give the natural chain unless they say otherwise; changes in a name come on top.
UniProt O95573: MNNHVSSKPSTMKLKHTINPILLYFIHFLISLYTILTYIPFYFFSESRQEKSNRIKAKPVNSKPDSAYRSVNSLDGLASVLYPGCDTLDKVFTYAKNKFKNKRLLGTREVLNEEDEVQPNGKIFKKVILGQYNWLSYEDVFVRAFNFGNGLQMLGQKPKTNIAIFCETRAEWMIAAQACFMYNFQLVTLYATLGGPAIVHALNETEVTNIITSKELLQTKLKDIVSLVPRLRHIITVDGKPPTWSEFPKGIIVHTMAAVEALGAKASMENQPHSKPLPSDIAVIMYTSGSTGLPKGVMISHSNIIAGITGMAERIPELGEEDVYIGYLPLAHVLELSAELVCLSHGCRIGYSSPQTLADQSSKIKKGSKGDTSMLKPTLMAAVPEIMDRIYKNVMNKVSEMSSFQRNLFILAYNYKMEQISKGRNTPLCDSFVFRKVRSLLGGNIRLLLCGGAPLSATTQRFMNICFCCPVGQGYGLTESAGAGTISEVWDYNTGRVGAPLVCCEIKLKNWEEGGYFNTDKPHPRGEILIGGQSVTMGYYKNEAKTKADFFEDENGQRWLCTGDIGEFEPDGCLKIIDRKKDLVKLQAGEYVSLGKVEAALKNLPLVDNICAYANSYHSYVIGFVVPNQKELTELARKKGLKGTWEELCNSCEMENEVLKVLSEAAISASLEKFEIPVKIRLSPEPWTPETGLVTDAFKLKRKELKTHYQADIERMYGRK
UniProt O75391: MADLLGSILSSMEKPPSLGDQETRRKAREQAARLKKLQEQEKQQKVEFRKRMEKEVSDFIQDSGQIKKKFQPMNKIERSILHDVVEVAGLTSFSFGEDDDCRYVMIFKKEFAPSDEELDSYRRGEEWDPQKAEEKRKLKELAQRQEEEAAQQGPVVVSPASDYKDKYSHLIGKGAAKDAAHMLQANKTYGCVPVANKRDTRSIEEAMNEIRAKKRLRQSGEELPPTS
UniProt O60762: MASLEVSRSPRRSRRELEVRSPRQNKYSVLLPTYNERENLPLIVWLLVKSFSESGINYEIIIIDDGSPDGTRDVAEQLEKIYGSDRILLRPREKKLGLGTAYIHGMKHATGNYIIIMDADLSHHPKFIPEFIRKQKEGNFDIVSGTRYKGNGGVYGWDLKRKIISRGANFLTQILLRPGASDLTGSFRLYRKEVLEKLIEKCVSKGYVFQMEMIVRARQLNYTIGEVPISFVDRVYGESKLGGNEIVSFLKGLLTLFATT
UniProt O75340: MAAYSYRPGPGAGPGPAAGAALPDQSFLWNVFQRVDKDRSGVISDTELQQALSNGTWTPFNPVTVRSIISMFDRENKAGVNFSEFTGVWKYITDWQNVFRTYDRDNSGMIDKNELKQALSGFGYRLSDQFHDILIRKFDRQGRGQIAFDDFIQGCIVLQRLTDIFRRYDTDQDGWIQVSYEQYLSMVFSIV
UniProt O75191: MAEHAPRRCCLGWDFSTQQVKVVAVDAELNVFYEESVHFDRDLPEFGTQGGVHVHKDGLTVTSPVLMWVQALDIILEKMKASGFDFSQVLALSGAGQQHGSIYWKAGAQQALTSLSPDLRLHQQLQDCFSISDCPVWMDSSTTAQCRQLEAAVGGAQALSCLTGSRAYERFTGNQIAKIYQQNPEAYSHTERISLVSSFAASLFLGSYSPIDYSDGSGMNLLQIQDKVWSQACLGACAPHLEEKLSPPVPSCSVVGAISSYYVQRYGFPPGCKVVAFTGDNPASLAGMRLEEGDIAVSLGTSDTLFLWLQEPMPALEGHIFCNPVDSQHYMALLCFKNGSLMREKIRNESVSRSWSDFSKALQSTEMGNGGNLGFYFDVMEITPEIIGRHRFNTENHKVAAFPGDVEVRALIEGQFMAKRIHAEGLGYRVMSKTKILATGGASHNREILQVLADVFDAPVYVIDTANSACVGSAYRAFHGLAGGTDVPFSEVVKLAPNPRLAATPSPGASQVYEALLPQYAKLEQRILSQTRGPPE
UniProt O94992, whole entry: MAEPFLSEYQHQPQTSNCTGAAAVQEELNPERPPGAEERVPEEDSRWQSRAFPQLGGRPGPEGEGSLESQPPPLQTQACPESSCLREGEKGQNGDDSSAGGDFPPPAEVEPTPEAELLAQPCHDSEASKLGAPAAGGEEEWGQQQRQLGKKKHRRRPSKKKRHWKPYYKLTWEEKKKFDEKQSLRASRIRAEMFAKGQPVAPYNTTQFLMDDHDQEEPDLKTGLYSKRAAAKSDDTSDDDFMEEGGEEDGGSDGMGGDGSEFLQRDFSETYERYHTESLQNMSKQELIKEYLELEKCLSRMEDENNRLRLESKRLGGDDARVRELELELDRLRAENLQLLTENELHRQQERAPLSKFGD
UniProt O95391: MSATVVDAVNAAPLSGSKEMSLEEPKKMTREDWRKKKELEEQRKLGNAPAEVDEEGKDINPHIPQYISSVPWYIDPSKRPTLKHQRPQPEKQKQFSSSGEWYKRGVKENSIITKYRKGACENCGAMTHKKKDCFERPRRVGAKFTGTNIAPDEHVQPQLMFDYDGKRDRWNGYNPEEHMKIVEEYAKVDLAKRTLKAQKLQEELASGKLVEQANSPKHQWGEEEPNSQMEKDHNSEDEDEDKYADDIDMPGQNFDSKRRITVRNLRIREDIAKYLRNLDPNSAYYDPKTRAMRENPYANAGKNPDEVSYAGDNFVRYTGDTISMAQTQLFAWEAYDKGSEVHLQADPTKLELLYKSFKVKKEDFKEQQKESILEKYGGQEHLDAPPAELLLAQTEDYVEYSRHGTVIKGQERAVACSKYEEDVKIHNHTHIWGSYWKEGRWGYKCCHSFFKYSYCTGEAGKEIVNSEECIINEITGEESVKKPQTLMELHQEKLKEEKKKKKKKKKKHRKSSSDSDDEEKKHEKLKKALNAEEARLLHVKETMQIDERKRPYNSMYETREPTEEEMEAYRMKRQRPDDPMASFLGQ
UniProt O75531: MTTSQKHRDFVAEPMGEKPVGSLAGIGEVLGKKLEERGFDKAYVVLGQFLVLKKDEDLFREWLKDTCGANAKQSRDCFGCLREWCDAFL
UniProt O75874, whole entry: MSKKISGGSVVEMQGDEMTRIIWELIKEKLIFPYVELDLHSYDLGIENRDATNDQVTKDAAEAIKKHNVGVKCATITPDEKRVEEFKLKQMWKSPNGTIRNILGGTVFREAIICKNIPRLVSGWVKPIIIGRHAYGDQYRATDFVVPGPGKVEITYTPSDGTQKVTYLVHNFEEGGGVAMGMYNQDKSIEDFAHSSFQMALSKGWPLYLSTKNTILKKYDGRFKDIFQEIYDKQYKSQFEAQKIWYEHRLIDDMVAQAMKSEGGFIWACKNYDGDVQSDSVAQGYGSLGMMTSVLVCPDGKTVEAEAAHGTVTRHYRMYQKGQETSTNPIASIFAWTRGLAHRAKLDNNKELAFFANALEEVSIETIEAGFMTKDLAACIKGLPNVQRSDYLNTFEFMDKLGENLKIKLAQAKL
UniProt O75157: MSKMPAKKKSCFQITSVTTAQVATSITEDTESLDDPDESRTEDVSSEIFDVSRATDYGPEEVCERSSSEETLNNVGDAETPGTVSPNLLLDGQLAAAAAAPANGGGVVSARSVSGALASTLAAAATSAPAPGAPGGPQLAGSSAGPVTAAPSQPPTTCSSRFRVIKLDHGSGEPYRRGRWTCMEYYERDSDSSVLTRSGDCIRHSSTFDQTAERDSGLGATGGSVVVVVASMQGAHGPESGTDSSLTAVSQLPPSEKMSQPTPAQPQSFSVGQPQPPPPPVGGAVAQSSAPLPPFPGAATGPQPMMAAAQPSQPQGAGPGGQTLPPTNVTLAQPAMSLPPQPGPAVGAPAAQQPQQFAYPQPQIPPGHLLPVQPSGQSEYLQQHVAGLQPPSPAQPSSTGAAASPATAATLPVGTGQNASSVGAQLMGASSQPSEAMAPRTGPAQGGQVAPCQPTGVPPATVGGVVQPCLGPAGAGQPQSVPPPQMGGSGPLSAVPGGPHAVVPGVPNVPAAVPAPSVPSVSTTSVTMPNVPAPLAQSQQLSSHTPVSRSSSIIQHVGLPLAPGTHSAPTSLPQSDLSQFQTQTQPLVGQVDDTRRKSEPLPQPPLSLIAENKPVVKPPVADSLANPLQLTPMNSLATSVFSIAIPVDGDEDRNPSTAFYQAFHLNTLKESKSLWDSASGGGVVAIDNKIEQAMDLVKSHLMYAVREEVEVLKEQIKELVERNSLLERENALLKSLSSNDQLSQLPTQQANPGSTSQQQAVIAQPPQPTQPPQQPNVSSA
UniProt O95721: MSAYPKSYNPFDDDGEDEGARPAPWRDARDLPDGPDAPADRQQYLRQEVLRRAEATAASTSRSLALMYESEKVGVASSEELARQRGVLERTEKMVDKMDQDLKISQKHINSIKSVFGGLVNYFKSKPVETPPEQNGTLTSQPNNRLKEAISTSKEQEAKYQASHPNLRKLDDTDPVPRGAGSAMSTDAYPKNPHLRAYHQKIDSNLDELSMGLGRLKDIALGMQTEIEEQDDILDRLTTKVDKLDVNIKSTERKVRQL
UniProt O95470: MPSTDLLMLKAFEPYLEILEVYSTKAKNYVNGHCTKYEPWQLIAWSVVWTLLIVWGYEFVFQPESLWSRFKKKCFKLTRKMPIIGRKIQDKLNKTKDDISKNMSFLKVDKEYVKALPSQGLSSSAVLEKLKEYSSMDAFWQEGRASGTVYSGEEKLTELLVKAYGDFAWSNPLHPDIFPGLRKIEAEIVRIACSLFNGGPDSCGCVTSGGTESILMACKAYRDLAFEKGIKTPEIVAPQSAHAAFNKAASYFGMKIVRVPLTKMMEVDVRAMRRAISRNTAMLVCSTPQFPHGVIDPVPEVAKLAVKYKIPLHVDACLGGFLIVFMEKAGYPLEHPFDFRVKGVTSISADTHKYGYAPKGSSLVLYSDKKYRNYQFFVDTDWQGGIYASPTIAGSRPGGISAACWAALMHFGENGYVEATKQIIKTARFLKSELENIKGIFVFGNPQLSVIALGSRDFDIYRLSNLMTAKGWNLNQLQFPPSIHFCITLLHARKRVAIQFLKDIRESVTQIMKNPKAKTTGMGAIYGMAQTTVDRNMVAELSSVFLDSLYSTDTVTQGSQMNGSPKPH
UniProt O75844: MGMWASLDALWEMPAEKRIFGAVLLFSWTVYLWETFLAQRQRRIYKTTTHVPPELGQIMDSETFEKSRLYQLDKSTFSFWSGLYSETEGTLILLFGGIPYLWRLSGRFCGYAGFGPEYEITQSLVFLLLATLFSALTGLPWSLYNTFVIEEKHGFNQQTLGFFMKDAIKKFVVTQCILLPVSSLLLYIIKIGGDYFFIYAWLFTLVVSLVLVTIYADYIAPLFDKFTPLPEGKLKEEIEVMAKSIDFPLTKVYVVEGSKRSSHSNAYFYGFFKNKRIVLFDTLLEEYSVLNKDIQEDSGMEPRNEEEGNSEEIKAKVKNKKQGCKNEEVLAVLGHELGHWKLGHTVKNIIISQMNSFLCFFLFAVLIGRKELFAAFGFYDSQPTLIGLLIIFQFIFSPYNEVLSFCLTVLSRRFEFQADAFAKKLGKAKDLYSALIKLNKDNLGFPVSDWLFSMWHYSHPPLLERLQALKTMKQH
UniProt O94906: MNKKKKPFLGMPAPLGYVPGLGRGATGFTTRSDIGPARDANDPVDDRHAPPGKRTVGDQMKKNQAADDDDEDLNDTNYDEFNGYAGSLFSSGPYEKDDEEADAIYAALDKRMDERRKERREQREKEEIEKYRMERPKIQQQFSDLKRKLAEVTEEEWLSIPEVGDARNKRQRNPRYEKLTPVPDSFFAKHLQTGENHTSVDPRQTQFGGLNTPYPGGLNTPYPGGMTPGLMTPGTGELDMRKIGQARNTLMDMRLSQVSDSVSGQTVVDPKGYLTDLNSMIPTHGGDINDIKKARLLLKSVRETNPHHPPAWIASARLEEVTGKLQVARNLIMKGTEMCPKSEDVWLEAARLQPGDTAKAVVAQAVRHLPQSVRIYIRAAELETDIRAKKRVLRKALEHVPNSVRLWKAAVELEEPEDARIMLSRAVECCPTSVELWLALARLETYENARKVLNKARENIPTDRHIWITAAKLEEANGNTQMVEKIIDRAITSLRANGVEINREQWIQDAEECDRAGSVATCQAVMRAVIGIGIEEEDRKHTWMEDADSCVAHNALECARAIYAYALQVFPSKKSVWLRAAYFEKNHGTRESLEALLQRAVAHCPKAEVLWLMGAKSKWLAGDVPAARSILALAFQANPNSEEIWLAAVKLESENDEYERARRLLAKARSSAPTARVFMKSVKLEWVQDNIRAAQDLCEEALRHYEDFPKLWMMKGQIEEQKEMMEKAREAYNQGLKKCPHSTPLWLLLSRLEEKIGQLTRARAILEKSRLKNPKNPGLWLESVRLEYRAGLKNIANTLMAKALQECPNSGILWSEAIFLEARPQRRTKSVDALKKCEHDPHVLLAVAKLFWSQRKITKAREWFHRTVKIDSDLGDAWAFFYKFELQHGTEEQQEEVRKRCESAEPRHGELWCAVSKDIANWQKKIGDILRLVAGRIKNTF

± gives the standard deviation of the averaged measurements. The list shows a part of the results, in another mix than the full data. Most values lie at the level of the controls, where differences are scatter.

Compound in this assay: Nc1ncnc2c1ncn2[C@@H]1O[C@H](COP(=O)(O)OP(=O)(O)OP(=O)(O)O)[C@@H](O)[C@H]1O [adenosine triphosphate]
Kind of assay: NP40-soluble protein abundance relative to vehicle (solubility fold change) (ratio); higher = more soluble protein in presence of ATP. The method, boiled down: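 Eight concentrations, 0.1 to 10 mM, were tested on Jurkat crude lysate for 10 min at room temperature and then 3 min at 37 °C, in three independent experiments. The lysate was solubilised with 0.8% NP40 and benzonase, ultracentrifuged, and the supernatant TMT-labelled for LC-MS/MS. Each value is the fold change against the detergent-processed vehicle in its own replicate, from vsn-normalised intensities.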

As for ACSL3 (UniProt O95573), the NP40-soluble protein abundance is 1.04 ± 0.037 (concentration: 0.1mM); 1.07 ± 0.036 (concentration: 0.5mM); 1.02 ± 0.05 (concentration: 1mM); 1.05 ± 0.028 (concentration: 2mM); 1.03 ± 0.036 (concentration: 4mM); 1 ± 0.11 (concentration: 6mM). The NP40-soluble protein abundance reads like this: (concentration: 8mM) 1.03 ± 0.041; (concentration: 10mM) 1.01 ± 0.031.
In the case of ZBTB11 (UniProt O95625), the NP40-soluble protein abundance worked out at 1.03 ± 0.045 (concentration: 0.1mM); 1.04 ± 0.035 (concentration: 0.5mM); 1.03 ± 0.057 (concentration: 1mM); 1.004 ± 0.0071 (concentration: 2mM); 1.03 ± 0.053 (concentration: 4mM); 0.949 ± 0.021 (concentration: 6mM). In addition, the NP40-soluble protein abundance by setting is: (concentration: 8mM) 0.97 ± 0.015; (concentration: 10mM) 0.979 ± 0.04.
In the case of SPAG7 (UniProt O75391), the NP40-soluble protein abundance by setting is: (concentration: 0.1mM) 0.95 ± 0.067; (concentration: 0.5mM) 0.946 ± 0.06; (concentration: 1mM) 0.972 ± 0.053; (concentration: 2mM) 0.964 ± 0.047; (concentration: 4mM) 0.964 ± 0.04; (concentration: 6mM) 0.969 ± 0.046. The NP40-soluble protein abundance is, setting by setting: (concentration: 8mM) 0.9594 ± 0.0036; (concentration: 10mM) 0.903 ± 0.058.
Regarding UniProt O60762 and related entries, the NP40-soluble protein abundance runs as follows: (concentration: 0.1mM) 1.09 ± 0.027; (concentration: 0.5mM) 1.18 ± 0.072.
In the case of CPNE3 (UniProt O75131), the NP40-soluble protein abundance by setting is: (concentration: 0.1mM) 1.01 ± 0.06; (concentration: 0.5mM) 1.01 ± 0.033; (concentration: 1mM) 0.969 ± 0.067; (concentration: 2mM) 0.983 ± 0.052; (concentration: 4mM) 0.954 ± 0.054; (concentration: 6mM) 0.903 ± 0.1. Besides, the NP40-soluble protein abundance reads like this: (concentration: 8mM) 0.951 ± 0.024; (concentration: 10mM) 0.96 ± 0.024.
TMEM63A (UniProt O94886): the NP40-soluble protein abundance runs as follows: (concentration: 0.1mM) 1.06 ± 0.026; (concentration: 0.5mM) 0.959 ± 0.044; (concentration: 1mM) 0.9962 ± 0.0062; (concentration: 2mM) 1.016 ± 0.004; (concentration: 4mM) 1.01 ± 0.023; (concentration: 6mM) 1.0012 ± 0.00078. Also, the NP40-soluble protein abundance was found to be 0.961 ± 0.024 (concentration: 8mM) and 0.979 ± 0.01 (concentration: 10mM).
UniProt O75340 and related entries: the NP40-soluble protein abundance reads like this: (concentration: 0.1mM) 1 ± 0.017; (concentration: 0.5mM) 0.96 ± 0.071.
As to XYLB (UniProt O75191), the NP40-soluble protein abundance is, setting by setting: (concentration: 0.1mM) 1.04 ± 0.061; (concentration: 0.5mM) 1.03 ± 0.082; (concentration: 1mM) 1 ± 0.053; (concentration: 2mM) 0.986 ± 0.062; (concentration: 4mM) 0.984 ± 0.097; (concentration: 6mM) 0.965 ± 0.069. The NP40-soluble protein abundance reads like this: (concentration: 8mM) 0.99 ± 0.075; (concentration: 10mM) 0.967 ± 0.053.
Take HEXIM1 (UniProt O94992): the NP40-soluble protein abundance reads like this: (concentration: 0.1mM) 0.976 ± 0.045; (concentration: 0.5mM) 0.972 ± 0.036.
In the case of TMCC1 (UniProt O94876), the NP40-soluble protein abundance amounted to 1.02 ± 0.048 (concentration: 0.1mM) and 1.01 ± 0.037 (concentration: 0.5mM).
Taken in the same sequence, the figures for SLU7 (UniProt O95391) were 0.869 ± 0.046 and 0.894 ± 0.06.
In the case of UniProt O95639 and related entries, the NP40-soluble protein abundance was determined as 1.01 ± 0.038 (concentration: 0.1mM); 1.19 ± 0.031 (concentration: 0.5mM); 1.3 ± 0.028 (concentration: 1mM); 1.38 ± 0.046 (concentration: 2mM); 1.52 ± 0.06 (concentration: 4mM); 1.64 ± 0.1 (concentration: 6mM). The NP40-soluble protein abundance (concentration: 8mM) was determined as 1.7 ± 0.039 and the NP40-soluble protein abundance (concentration: 10mM) came to 1.73 ± 0.078.
As for BANF1 (UniProt O75531), the NP40-soluble protein abundance (concentration: 0.1mM) was found to be 1.09 ± 0.12; the NP40-soluble protein abundance (concentration: 0.5mM) was found to be 5.43 ± 2.5; the NP40-soluble protein abundance (concentration: 1mM) came out at 5.83 ± 1.6; the NP40-soluble protein abundance (concentration: 2mM) worked out at 5.36 ± 0.56; the NP40-soluble protein abundance (concentration: 4mM) came out at 5.89 ± 1.4; the NP40-soluble protein abundance (concentration: 6mM) came out at 6.26 ± 1.4. The NP40-soluble protein abundance reads like this: (concentration: 8mM) 5.6 ± 0.81; (concentration: 10mM) 5.02 ± 1.8.
With IDH1 (UniProt O75874), the NP40-soluble protein abundance runs as follows: (concentration: 0.1mM) 1.04 ± 0.075; (concentration: 0.5mM) 1.04 ± 0.059; (concentration: 1mM) 0.993 ± 0.056; (concentration: 2mM) 0.988 ± 0.038; (concentration: 4mM) 0.94 ± 0.052; (concentration: 6mM) 0.94 ± 0.081. Moreover, the NP40-soluble protein abundance was determined as 0.957 ± 0.04 (concentration: 8mM) and 0.949 ± 0.027 (concentration: 10mM).
For the target UniProt O75157 and related entries, the NP40-soluble protein abundance was 0.989 ± 0.048 (concentration: 0.1mM) and 0.9 ± 0.062 (concentration: 0.5mM).
On to SNAP29 (UniProt O95721), for which the NP40-soluble protein abundance by setting is: (concentration: 0.1mM) 0.956 ± 0.069; (concentration: 0.5mM) 0.94 ± 0.075; (concentration: 1mM) 0.967 ± 0.086; (concentration: 2mM) 0.943 ± 0.043; (concentration: 4mM) 0.939 ± 0.055; (concentration: 6mM) 0.967 ± 0.04. The NP40-soluble protein abundance runs as follows: (concentration: 8mM) 0.939 ± 0.036; (concentration: 10mM) 0.877 ± 0.046.
With DNAJC13 (UniProt O75165), the NP40-soluble protein abundance by setting is: (concentration: 0.1mM) 1.04 ± 0.044; (concentration: 0.5mM) 1.05 ± 0.055; (concentration: 1mM) 1.15 ± 0.024; (concentration: 2mM) 1.29 ± 0.095; (concentration: 4mM) 1.3 ± 0.043; (concentration: 6mM) 1.35 ± 0.12. Also, the NP40-soluble protein abundance runs as follows: (concentration: 8mM) 1.68 ± 0.12; (concentration: 10mM) 1.73 ± 0.22.
As to SGPL1 (UniProt O95470), the NP40-soluble protein abundance (concentration: 0.1mM) is 1.04 ± 0.086; the NP40-soluble protein abundance (concentration: 0.5mM) worked out at 1.05 ± 0.059; the NP40-soluble protein abundance (concentration: 1mM) came out at 1.05 ± 0.14; the NP40-soluble protein abundance (concentration: 2mM) turned out to be 1.03 ± 0.1; the NP40-soluble protein abundance (concentration: 4mM) worked out at 1.02 ± 0.086; the NP40-soluble protein abundance (concentration: 6mM) came to 0.965 ± 0.094. Moreover, the NP40-soluble protein abundance is, setting by setting: (concentration: 8mM) 1.07 ± 0.079; (concentration: 10mM) 1.06 ± 0.075.
With ZMPSTE24 (UniProt O75844), the NP40-soluble protein abundance was 1.05 ± 0.085 (concentration: 0.1mM) and 1.04 ± 0.084 (concentration: 0.5mM).
Regarding PRPF6 (UniProt O94906), the NP40-soluble protein abundance (concentration: 0.1mM) was determined as 0.998 ± 0.078; the NP40-soluble protein abundance (concentration: 0.5mM) was 1.12 ± 0.11; the NP40-soluble protein abundance (concentration: 1mM) came out at 1.31 ± 0.017; the NP40-soluble protein abundance (concentration: 2mM) is 1.5 ± 0.12; the NP40-soluble protein abundance (concentration: 4mM) is 1.79 ± 0.13; the NP40-soluble protein abundance (concentration: 6mM) turned out to be 1.97 ± 0.2. Besides, the NP40-soluble protein abundance (concentration: 8mM) amounted to 2.18 ± 0.15 and the NP40-soluble protein abundance (concentration: 10mM) stood at 2.36 ± 0.21.
